Source: article PMC9681113

T1: GFP-tagged MAB21L1 Arg51Leu (human) (UniProt Q13394)
T1 sequence: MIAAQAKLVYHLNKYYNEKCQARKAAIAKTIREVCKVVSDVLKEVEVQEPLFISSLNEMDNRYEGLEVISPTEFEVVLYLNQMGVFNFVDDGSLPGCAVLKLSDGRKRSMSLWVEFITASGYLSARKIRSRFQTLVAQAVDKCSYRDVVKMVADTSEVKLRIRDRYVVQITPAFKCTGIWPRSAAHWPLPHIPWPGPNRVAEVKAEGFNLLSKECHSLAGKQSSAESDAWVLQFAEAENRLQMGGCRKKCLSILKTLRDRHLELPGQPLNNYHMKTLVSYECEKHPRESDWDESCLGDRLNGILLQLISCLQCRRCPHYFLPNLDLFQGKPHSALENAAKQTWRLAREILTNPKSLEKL

T2: GFP-tagged wild-type MAB21L1 (human) (UniProt Q13394)
T2 sequence: T1 sequence with L51R

T3: GFP-tagged MAB21L1 Arg51Gln (human) (UniProt Q13394)
T3 sequence: T1 sequence with L51Q

B1: NPM3 (protein, UniProt O75607 1-178)
chain: MAAGTAAALAFLSQESRTRAGGVGGLRVPAPVTMDSFFFGCELSGHTRSFTFKVEEEDDAEHVLALTMLCLTEGAKDECNVVEVVARNHDHQEIAVPVANLKLSCQPMLSLDDFQLQPPVTFRLKSGSGPVRITGRHQIVTMSNDVSEEESEEEEEDSDEEEVELCPILPAKKQGGRP
B2: RBMX2 (protein, UniProt Q9Y388 1-322)
chain: MNPLTKVKLINELNEREVQLGVADKVSWHSEYKDSAWIFLGGLPYELTEGDIICVFSQYGEIVNINLVRDKKTGKSKGFCFLCYEDQRSTILAVDNFNGIKIKGRTIRVDHVSNYRAPKDSEEIDDVTRQLQEKGCGARTPSPSLSESSEDEKPTKKHKKDKKEKKKKKKEKEKADREVQAEQPSSSSPRRKTVKEKDDTGPKKHSSKNSERAQKSEPREGQKLPKSRTAYSGGAEDLERELKKEKPKHEHKSSSRREAREEKTRIRDRGRSSDAHSSWYNGRSEGRSYRSRSRSRDKSHRHKRARRSRERESSNPSDRWRH
B3: ERAL1 (protein, UniProt O75616 44-437)
chain: VSCVAGSAFSGPRLASASRSNGQGSALDHFLGFSQPDSSVTPCVPAVSMNRDEQDVLLVHHPDMPENSRVLRVVLLGAPNAGKSTLSNQLLGRKVFPVSRKVHTTRCQALGVITEKETQVILLDTPGIISPGKQKRHHLELSLLEDPWKSMESADLVVVLVDVSDKWTRNQLSPQLLRCLTKYSQIPSVLVMNKVDCLKQKSVLLELTAALTEGVVNGKKLKMRQAFHSHPGTHCPSPAVKDPNTQSVGNPQRIGWPHFKEIFMLSALSQEDVKTLKQYLLTQAQPGPWEYHSAVLTSQTPEEICANIIREKLLEHLPQEVPYNVQQKTAVWEEGPGGELVIQQKLLVPKESYVKLLIGPKGHVISQIAQEAGHDLMDIFLCDVDIRLSVKLLK
B4: SPATS2 (protein, UniProt Q86XZ4 1-545)
chain: MSRKQNQKDSSGFIFDLQSNTVLAQGGAFENMKEKINAVRAIVPNKSNNEIILVLQHFDNCVDKTVQAFMEGSASEVLKEWTVTGKKKNKKKKNKPKPAAEPSNGIPDSSKSVSIQEEQSAPSSEKGGMNGYHVNGAINDTESVDSLSEGLETLSIDARELEDPESAMLDTLDRTGSMLQNGVSDFETKSLTMHSIHNSQQPRNAAKSLSRPTTETQFSNMGMEDVPLATSKKLSSNIEKSVKDLQRCTVSLARYRVVVKEEMDASIKKMKQAFAELESCLMDREVALLAEMDKVKAEAMEILLSRQKKAELLKKMTHVAVQMSEQQLVELRADIKHFVSERKYDEDLGRVARFTCDVETLKKSIDSFGQVSHPKNSYSTRSRCSSVTSVSLSSPSDASAASSSTCASPPSLTSANKKNFAPGETPAAIANSSGQPYQPLREVLPGNRRGGQGYRPQGQKSNDPMNQGRHDSMGRYRNSSWYSSGSRYQSAPSQAPGNTIERGQTHSAGTNGTGVSMEPSPPTPSFKKGLPQRKPRTSQTEAVNS
B5: NUSAP1 (protein, UniProt Q9BXS6 1-441)
chain: MIIPSLEELDSLKYSDLQNLAKSLGLRANLRATKLLKALKGYIKHEARKGNENQDESQTSASSCDETEIQISNQEEAERQPLGHVTKTRRRCKTVRVDPDSQQNHSEIKISNPTEFQNHEKQESQDLRATAKVPSPPDEHQEAENAVSSGNRDSKVPSEGKKSLYTDESSKPGKNKRTAITTPNFKKLHEAHFKEMESIDQYIERKKKHFEEHNSMNELKQQPINKGGVRTPVPPRGRLSVASTPISQRRSQGRSCGPASQSTLGLKGSLKRSAISAAKTGVRFSAATKDNEHKRSLTKTPARKSAHVTVSGGTPKGEAVLGTHKLKTITGNSAAVITPFKLTTEATQTPVSNKKPVFDLKASLSRPLNYEPHKGKLKPWGQSKENNYLNQHVNRINFYKKTYKQPHLQTKEEQRKKREQERKEKKAKVLGMRRGLILAED
B6: FASTKD5 (protein, UniProt Q7L8L6 28-764)
chain: VSYWNVSSTQHGGQDPPEHISLCHSAKKVKNICSTFSSRRILTTSSAHPGLEFSKTSSSKASTLQLGSPRATGVDEEDVEVFDSFENMRVFLQLRPEYRVHSYNASETSQLLSVSEGELILHKVRVNQNNLQAQVIVDYLCKLSSLPAEQHPVLLGSTSFALLCQLSVKKIQLFDTQDLINVLKAFVILGIPHSHSMLDVYETKCCHQVWEMNMDQLLLVADLWRYLGRKVPRFLNIFSSYLNLHWKDLSLSQLVHLIYVIGENRQVSQDLMQKLESLILKYIDLINLEEVGTICLGFFKSSTNLSEFVMRKIGDLACANIQHLSSRSLVNIVKMFRFTHVDHINFMKQIGEIAPQRIPSLGVQGVMHLTLYCSALRFLNEGVMNAVAASLPPRVAHCRSKDVAKILWSFGTLNYKPPNAEEFYSSLISEIHRKMPEFNQYPEHLPTCLLGLAFLEYFPVELIDFALSPGFVRLAQERTKFDLLKELYTLDGTVGIECPDYRGNRLSTHLQQEGSELLWYLAEKDMNSKPEFLETVFLLETMLGGPQYVKHHMILPHTRSSDLEVQLDVNLKPLPFNREATPAENVAKLRLEHVGVSLTDDLMNKLLKGKARGHFQGKTESEPGQQPMELENKAAVPLGGFLCNVADKSGAMEMAGLCPAACMQTPRMKLAVQFTNRNQYCYGSRDLLGLHNMKRRQLARLGYRVVELSYWEWLPLLKRTRLEKLAFLHEKVFTSAL
B7: LRRFIP1 (protein, UniProt Q32MZ4 1-808)
chain: MTSPAAAQSREIDCLSPEAQKLAEARLAAKRAARAEAREIRMKELERQQKEEDSERYSRRSRRNTSASDEDERMSVGSRGSLRVEERPEKDFTEKGSRNMPGLSAATLASLGGTSSRRGSGDTSISIDTEASIREIKELNELKDQIQDVEGKYMQGLKEMKDSLAEVEEKYKKAMVSNAQLDNEKTNFMYQVDTLKDMLLELEEQLAESRRQYEEKNKEFEREKHAHSILQFQFAEVKEALKQREEMLEKHGIILNSEIATNGETSDTLNNVGYQGPTKMTKEELNALKSTGDGTLGRASEVEVKNEIVANVGKREILHNTEKEQHTEDTVKDCVDIEVFPAGENTEDQKSSEDTAPFLGTLAGATYEEQVQSQILESSSLPENTVQVESNEVMGAPDDRTRTPLEPSNCWSDLDGGNHTENVGEAAVTQVEEQAGTVASCPLGHSDDTVYHDDKCMVEVPQELETSTGHSLEKEFTNQEAAEPKEVPAHSTEVGRDHNEEEGEETGLRDEKPIKTEVPGSPAGTEGNCQEATGPSTVDTQNEPLDMKEPDEEKSDQQGEALDSSQKKTKNKKKKNKKKKSPVPVETLKDVKKELTYQNTDLSEIKEEEQVKSTDRKSAVEAQNEVTENPKQKIAAESSENVDCPENPKIKLDGKLDQEGDDVQTAAEEVLADGDTLDFEDDTVQSSGPRAGGEELDEGVAKDNAKIDGATQSSPAEPKSEDADRCTLPEHESPSQDISDACEAESTERCEMSEHPSQTVRKALDSNSLENDDLSAPGREPGHFNPESREDTRGGNEKGKSKEDCTMS

target: T1, GFP-tagged MAB21L1 Arg51Leu (human); experiment: affinity purification with mass spectrometry; GFP pulldown with GFP Tag Immunomagnetic Beads from lysates of HEK-293 Flp-In T-REx cells expressing EGFP, EGFP-MAB21L1 or mutant EGFP-MAB21L1 after 12 hrs of 1 μg/ml tetracycline; three biological replicates; MaxQuant

binding | Binder
binds | B1
binds | B2
binds | B3
binds | B4
binds | B5
binds | B6
binds | B7

target: T2, GFP-tagged wild-type MAB21L1 (human); experiment: as above

binding | Binder
binds | B1
binds | B2
binds | B3
binds | B4
binds | B5
binds | B6
no binding | B7

target: T3, GFP-tagged MAB21L1 Arg51Gln (human); experiment: as above

binding | Binder
binds | B1
binds | B2
binds | B3
binds | B4
binds | B5
binds | B6
binds | B7

Substitutions are numbered along the chain they refer to. Results are given in words; binding and its absence hold for the method and conditions named. Binding seen in cells or lysates may run through a third protein. A yes stands for co-enrichment or nearness to the bait. Other partners may have been found. For part of these data: No binding means not detected with the bait. Where a sequence is shown, tags or fusion partners need not be part of it.
